According to PubChem BioAssay AID330 (DTP/NCI, 2004):
The list shows only some results of the screen, not a fair sample: it gathers tests that were run many times, whatever their T/C, doses with no T/C, and many T/C values between a quarter and a half above the control. Further doses and runs are listed elsewhere. T/C gives the treated animals as a percentage of the vehicle group. Some entries give survivors of the animals treated and no T/C: the source holds a T/C of zero for them, seemingly a mark for toxic or unscored doses. Some survivor counts are full or nearly so, which does not show that the dose was tolerated: the source hardly ever lists a survival T/C far under the control, and the zero likely stands for such cases as well. Counts of survivors are from the toxicity check (mostly the fifth day) where no day follows; animals may have died later. Schedules are NCI's codes, taken here to give the interval after Q, in days (D) or hours (H), and the number of doses after X. Some doses were run more than once; the results are listed from low to high. Additions like (4×) give the number of equal values in this list. For survival time, this PubChem deposit counts one and a half times the control or more as active, and values a quarter to a half above the control carry no call in these data; other NCI protocols may use other cut-offs. Some T/C values carry the count of animals alive at the toxicity check (mostly the fifth day); without a count, all were alive then. Some schedule codes hold Z or #, which are not explained here.

Test system: P388 leukemia ip, CD2F1 mice, survival T/C
Test: NCI In Vivo Anticancer Drug Screen. Data for tumor model P388 Leukemia (intraperitoneal) in CD2F1 (CDF1) mice
Details: T/C endpoint: median survival time, higher T/C = longer survival

## COc1cccc2c1C(=O)c1c(O)c3c(c(O)c1C2=O)C[C@@](O)(C(=O)CO)C[C@@H]3OC1CC(N)C(O)C(C)O1 (some centres not stated)
dose: 2.0 mg/kg/injection, schedule: Q04DX003 (ip), vehicle: water, evaluated on day 30, list 2 of 2
  T/C: 109 (2×), 111, 113, 114, 118, 120 (2×), 121 (2×), 122 (2×), 123 (2×), 125, 126 (2×), 127 (2×), 128, 129 (2×), 130, 132, 133, 135 (2×), 137, 138, 141, 144, 145, 145 [5 of 6 alive on day 9], 157, 163, 210 % of control
dose: 2.0 mg/kg/injection, schedule: Q04DX003 (ip), vehicle: water, evaluated on day 35
  T/C: 102, 118 (2×), 120, 121, 124, 125, 128, 130, 131, 133, 136, 137, 144 % of control
dose: 2.0 mg/kg/injection, schedule: Q04DX003 (ip), vehicle: water, evaluated on day 40
  T/C: 111, 121, 128, 138, 153 % of control
dose: 2.0 mg/kg/injection, schedule: Q04DX003 (ip), vehicle: water, evaluated on day 45
  T/C: 105, 108, 112, 112 [5 of 6 alive on day 9], 113, 115, 117 (2×), 118, 118 [5 of 6 alive on day 9], 119, 120 (2×), 123, 125 (3×), 126 (3×), 127 (5×), 128 (4×), 129 (3×), 131 (2×), 134 (2×), 135 (2×), 136, 137, 138, 139, 139 [5 of 6 alive on day 9], 142, 144 (2×), 148, 157, 171, 192 (4×), 224, 226 % of control
dose: 2.0 mg/kg/injection, schedule: Q04DX003 (ip), vehicle: water, evaluated on day 50
  T/C: 110, 111, 120, 126, 132 % of control
dose: 2.0 mg/kg/injection, schedule: Q04DX003 (ip), vehicle: water, evaluated on day 60
  T/C: 127 and 136 % of control
dose: 2.0 mg/kg/injection, schedule: Q## X001 (ip), vehicle: saline
  T/C: 93, 100, 102 (2×), 119, 124, 130 % of control
dose: 2.16 mg/kg/injection, schedule: Q04DX003 (ip), vehicle: saline, evaluated on day 9
  T/C: 120 % of control
dose: 2.16 mg/kg/injection, schedule: Q04DX003 (ip), vehicle: saline, evaluated on day 45
  T/C: 192 and 193 % of control
dose: 2.16 mg/kg/injection, schedule: Q04DX003 (ip), vehicle: saline, evaluated on day 60
  T/C: 219 % of control
dose: 2.5 mg/kg/injection, schedule: Q01DX001 (ip), vehicle: water, evaluated on day 5
  T/C: 123 % of control
dose: 2.5 mg/kg/injection, schedule: Q01DX001 (ip), vehicle: water, evaluated on day 30
  T/C: 163 and 209 % of control
dose: 2.5 mg/kg/injection, schedule: Q01DX001 (ip), vehicle: water, evaluated on day 45
  T/C: 157, 158 (2×), 164, 175, 178, 187, 197 % of control
dose: 2.5 mg/kg/injection, schedule: Q04DX003 (ip), vehicle: saline
  T/C: 149 % of control
dose: 2.5 mg/kg/injection, schedule: Q04DX003 (ip), vehicle: water
  T/C: 141 % of control
dose: 2.7 mg/kg/injection, schedule: Q04DX003 (ip), vehicle: saline, evaluated on day 45
  T/C: 120, 160, 163, 175, 182, 189, 194, 205, 211, 218, 222 % of control
dose: 2.7 mg/kg/injection, schedule: Q04DX003 (ip), vehicle: saline, evaluated on day 60
  T/C: 184 % of control
dose: 3.0 mg/kg/injection, schedule: Q01DX009 (ip), vehicle: saline, evaluated on day 30
  T/C: 118 % of control [9 of 10 alive]
dose: 3.0 mg/kg/injection, schedule: Q01DX009 (ip), vehicle: saline, evaluated on day 45
  T/C: 264 and 364 % of control
dose: 3.0 mg/kg/injection, schedule: Q01DX009 (ip), vehicle: saline, evaluated on day 60
  T/C: 87 and 90 % of control [9 of 10 alive]
dose: 3.0 mg/kg/injection, schedule: Q04DX003 (ip), vehicle: saline, evaluated on day 10
  T/C: 114 % of control [8 of 9 alive]
dose: 3.0 mg/kg/injection, schedule: Q04DX003 (ip), vehicle: saline, evaluated on day 30
  T/C: 107 (2×), 132 [survivors not given], 150 % of control [survivors not given]
dose: 3.0 mg/kg/injection, schedule: Q04DX003 (ip), vehicle: saline, evaluated on day 60
  T/C: 181 % of control
dose: 3.0 mg/kg/injection, schedule: Q04DX003 (ip), vehicle: water, evaluated on day 30
  T/C: 130 % of control
dose: 3.0 mg/kg/injection, schedule: Q04DX003 (ip), vehicle: water, evaluated on day 45
  T/C: 127 % of control
dose: 3.13 mg/kg/injection, schedule: Q01DX009 (ip), vehicle: water, evaluated on day 30
  T/C: 86, 90, 95, 183 % of control
dose: 3.13 mg/kg/injection, schedule: Q01DX009 (ip), vehicle: water, evaluated on day 45
  T/C: 86 (2×), 87, 100 [5 of 6 alive], 105 % of control
dose: 3.13 mg/kg/injection, schedule: Q01DX009 (ip), vehicle: water
  survivor count: 0 of 6, 4 of 6, 5 of 6, 3 of 3 (2×), 5 of 5, 6 of 6 (3×)
dose: 3.6 mg/kg/injection, schedule: Q04DX003 (ip), vehicle: saline, evaluated on day 9
  T/C: 133 % of control
dose: 3.6 mg/kg/injection, schedule: Q04DX003 (ip), vehicle: saline, evaluated on day 45
  T/C: 152 and 190 % of control
dose: 3.6 mg/kg/injection, schedule: Q04DX003 (ip), vehicle: saline, evaluated on day 60
  T/C: 192 and 292 % of control
dose: 4.0 mg/kg/injection, schedule: Q01DX001 (ip), vehicle: Klucel (hydroxypropylcellulose) (HPC)
  T/C: 125 % of control
dose: 4.0 mg/kg/injection, schedule: Q01DX001 (ip), vehicle: other
  T/C: 146 % of control [7 of 10 alive]
dose: 4.0 mg/kg/injection, schedule: Q01DX001 (ip), vehicle: saline, evaluated on day 3
  T/C: 190 % of control
dose: 4.0 mg/kg/injection, schedule: Q01DX001 (ip), vehicle: saline, evaluated on day 5
  T/C: 94, 98, 104, 113, 123, 126, 146, 159 % of control
dose: 4.0 mg/kg/injection, schedule: Q01DX001 (ip), vehicle: saline, evaluated on day 6
  T/C: 200 % of control
dose: 4.0 mg/kg/injection, schedule: Q01DX001 (ip), vehicle: saline, evaluated on day 7
  T/C: 157, 165, 171, 176 % of control
dose: 4.0 mg/kg/injection, schedule: Q01DX001 (ip), vehicle: saline, evaluated on day 9
  T/C: 131 and 144 % of control
dose: 4.0 mg/kg/injection, schedule: Q01DX001 (ip), vehicle: saline, evaluated on day 30
  T/C: 137, 157, 186 % of control
dose: 4.0 mg/kg/injection, schedule: Q01DX001 (ip), vehicle: saline, evaluated on day 35
  T/C: 161 % of control
dose: 4.0 mg/kg/injection, schedule: Q01DX001 (ip), vehicle: saline, evaluated on day 45
  T/C: 131 % of control
dose: 4.0 mg/kg/injection, schedule: Q01DX001 (ip), vehicle: saline, evaluated on day 60
  T/C: 132 % of control
dose: 4.0 mg/kg/injection, schedule: Q01DX005 (ip), vehicle: water
  survivor count: 4 of 4
dose: 4.0 mg/kg/injection, schedule: Q01DX009 (ip), vehicle: saline, evaluated on day 5
  T/C: 91 and 93 % of control
dose: 4.0 mg/kg/injection, schedule: Q01DX009 (ip), vehicle: saline, evaluated on day 30
  T/C: 169 % of control
dose: 4.0 mg/kg/injection, schedule: Q01DX009 (ip), vehicle: saline, evaluated on day 45
  T/C: 86, 89, 100 % of control
dose: 4.0 mg/kg/injection, schedule: Q01DX009 (ip), vehicle: saline, evaluated on day 60
  T/C: 86 and 161 % of control
dose: 4.0 mg/kg/injection, schedule: Q01DX009 (ip), vehicle: saline
  survivor count: 9 of 10, 10 of 10, 6 of 6 (2×)
dose: 4.0 mg/kg/injection, schedule: Q01DX009 (ip), vehicle: water, evaluated on day 5
  T/C: 76 % of control
dose: 4.0 mg/kg/injection, schedule: Q01DX009 (ip), vehicle: water, evaluated on day 30
  T/C: 86, 87, 89, 90, 91, 97, 100, 101, 118, 120 % of control
dose: 4.0 mg/kg/injection, schedule: Q01DX009 (ip), vehicle: water, evaluated on day 45
  T/C: 88, 90, 94, 108, 111 % of control
dose: 4.0 mg/kg/injection, schedule: Q01DX009 (ip), vehicle: water
  survivor count: 3 of 4, 5 of 6 (2×), 3 of 3 (2×), 5 of 5, 6 of 6 (2×), 8 of 8
